This note sets out measurements from article PMC7819943, “Rice protein-binding microarrays: a tool to detect cis-acting elements near promoter regions in rice”.

Amino acid sequences for entries named in this document (tags omitted).
UniProt Q0JBA9, entry or part of it: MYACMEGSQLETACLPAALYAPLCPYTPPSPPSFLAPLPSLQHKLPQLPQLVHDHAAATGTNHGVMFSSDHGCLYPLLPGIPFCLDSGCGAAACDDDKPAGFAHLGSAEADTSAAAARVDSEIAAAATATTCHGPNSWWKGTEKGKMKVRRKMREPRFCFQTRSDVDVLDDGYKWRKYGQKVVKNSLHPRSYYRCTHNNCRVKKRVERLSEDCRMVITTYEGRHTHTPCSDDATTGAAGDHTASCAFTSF

Some of the results follow.

The target of this test is OsWRKY34 (Oryza sativa, UniProt Q0JBA9 1-250). Description: protein-binding microarray (RPBM); PBS, 2% BSA, 51.3 ng/ul salmon testes DNA, 50 uM zinc acetate, 200 nM TF, 25 C, 1 h; high values mean tight binding. As to conditions: protein: recombinant; tags: N-terminal polyhistidine and DsRed monomer fusion (pET32a); label: CyDye5-dUTP incorporated in the synthesized complementary strand; 3' TTTTT single-stranded linker to array surface; dsDNA, one strand shown. The method in brief:
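The binding signal is fluorescence intensity per feature, in arbitrary units, read on an Axon 4000B scanner. Polyhistidine- and DsRed-tagged transcription factors (N-terminal fusions) from E. coli BL21-CodonPlus were purified on Ni–NTA and applied at 200 nM for 1 h at 25 °C to a double-stranded, BSA-blocked custom Agilent array in buffer with 50 µM zinc acetate.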
With “AACCTAAACCCAATTTATTTGTTCGTCCTTTTCCGATTGACGGAGTCACCTAGTGCAG”, the binding signal is 9280 fluorescence intensity (a.u.). The figure for “CGCGGTGATATCTCTATTCAGTCGATCTCCTTCTTATCTTCGGAGTCACCTAGTGCAG” is 8620 fluorescence intensity (a.u.); for “GCTGTCGCCGCGGAAACCGTTTCTTTCTTCTTTTTTTCCTCGGAGTCACCTAGTGCAG” it is 9000 fluorescence intensity (a.u.). With “GTGGTGGGGTGGCAAGGAGGAGCGGGGCACGCCGGTGGTGCGGAGTCACCTAGTGCAG”, the binding signal was 12100 fluorescence intensity (a.u.). In the case of “TAGCTTTCTTTCCCTGCTCGTTTTCTTCTCTCTTGCGCCACGGAGTCACCTAGTGCAG”, the binding signal is 10000 fluorescence intensity (a.u.). As for “ATTCCGTATCGATCTCTGCCTTTCTCTGTCTCTGCACTGACGGAGTCACCTAGTGCAG”, the binding signal was 10800 fluorescence intensity (a.u.). For “TTTATCCTTTGCTTTCCACTTGATTTCTCCACTGACTCATCGGAGTCACCTAGTGCAG”, the binding signal is 9860 fluorescence intensity (a.u.). In the case of “ATTTCGGTCTCATTTCTGTTAGTTCGGTTGGTTTTAATTTCGGAGTCACCTAGTGCAG”, the binding signal is 10500 fluorescence intensity (a.u.). The figure for “TCTCGCTGTATCTGCTCCGCCCGCCCGCCATATCTCCTTCCGGAGTCACCTAGTGCAG” is 8120 fluorescence intensity (a.u.); for “AAACTTAATTAATCATATGTTATTGGTTTTCTCGTTTTACCGGAGTCACCTAGTGCAG” it is 9060 fluorescence intensity (a.u.); for “ATTGCACACCCTAAACTTGTAAAACCGGACGAATTATCCCCGGAGTCACCTAGTGCAG” it is 8220 fluorescence intensity (a.u.).

In the case of “TCCGTCACCAATGATGTCCCGGCGCCCTTCTTTGTATCCGCGGAGTCACCTAGTGCAG”, the binding signal was 12600 fluorescence intensity (a.u.).

In the case of “TTTTGCCATCTGGTAATCCCTCTACCACCAACAGCTACAACGGAGTCACCTAGTGCAG”, the binding signal was 9220 fluorescence intensity (a.u.). Consider “CCATCCCTTTCACTGTCGTCGCGGCCTCCCTGACCGCGCCCGGAGTCACCTAGTGCAG”, for which the binding signal is 13000 fluorescence intensity (a.u.). As for “CTCTCAACCCATCGGCCATCGCCCACCACCGCCATTCGCCCGGAGTCACCTAGTGCAG”, the figure is 11100 fluorescence intensity (a.u.); as for “GATCTCTTCTCGCTTCACGCTTCTCTCCTCCTCTCCGCGGCGGAGTCACCTAGTGCAG”, 12000 fluorescence intensity (a.u.); as for “GTGTTGGCCCAGTCATTTTTGGCCTTTTTTAGCTGTCTGTCGGAGTCACCTAGTGCAG”, 9030 fluorescence intensity (a.u.).

As for “GCCGCCGCCCGCCGCCGCCGAGACCGACCCGACCACGATGCGGAGTCACCTAGTGCAG”, the binding signal is 8960 fluorescence intensity (a.u.). As for “TCTTACCATTGTATTCTGGCAGTTCAACTTCCATGGAATTCGGAGTCACCTAGTGCAG”, the binding signal is 11400 fluorescence intensity (a.u.). “ATCATCATATGTTTCACTCTTTTCAGTGTTGTGCTGCAACCGGAGTCACCTAGTGCAG”: the binding signal is 8710 fluorescence intensity (a.u.). In the case of “CTAACATCCTAATTCTTTACCTTCCCTGTACCTTTGATTTCGGAGTCACCTAGTGCAG”, the binding signal is 12500 fluorescence intensity (a.u.). As for “CGCCGACGCCCCACCGTGCCGCCACCCCGGCCTCGCCGGCCGGAGTCACCTAGTGCAG”, the figure is 8540 fluorescence intensity (a.u.). Turning to “CCTACACCCACCAGAATATATGTTATGCTGCCCGCGTATGCGGAGTCACCTAGTGCAG”, the binding signal is 9620 fluorescence intensity (a.u.). Take “CCCTCCTTCGCCACACCTCGTCTATCTCTACGCTTCCTGCCGGAGTCACCTAGTGCAG”: the binding signal is 8720 fluorescence intensity (a.u.). With “ATGGTGGGGATTAAAAGTGGATTAACCGAGCTTCCGATCGCGGAGTCACCTAGTGCAG”, the binding signal is 9800 fluorescence intensity (a.u.). Turning to “GCACCACTTGCCACTACCCCTGATGTAAGATGGCTCGTCACGGAGTCACCTAGTGCAG”, the binding signal was 8030 fluorescence intensity (a.u.). Regarding “GGTCCCAACTCCCAATCACCCAACCCAAAAAGTTGAATCCCGGAGTCACCTAGTGCAG”, the binding signal is 8100 fluorescence intensity (a.u.). Regarding “CTCACTTCCACTAATCACACTCTACAGTCTCACTCCTAGACGGAGTCACCTAGTGCAG”, the binding signal was 8950 fluorescence intensity (a.u.). Turning to “TATCATCTCTTTGGTTTTTTTGTCTTTTCTAAATTATTTACGGAGTCACCTAGTGCAG”, the binding signal was 10600 fluorescence intensity (a.u.). On to “GGACAAATATCTTTTCTACTGTTTGCTGGCTCTCTCTCTTCGGAGTCACCTAGTGCAG”, for which the binding signal is 8620 fluorescence intensity (a.u.).

Consider “GCTCGGTTTATTTTCCTCCTCCAATCCCTTTCCGGCTAGCCGGAGTCACCTAGTGCAG”, for which the binding signal is 8540 fluorescence intensity (a.u.). Turning to “GAACCGTTGCCGTGCCGCCGCCGCCGCCATTGACGCCATGCGGAGTCACCTAGTGCAG”, the binding signal is 10100 fluorescence intensity (a.u.). For “GCTAACCAGTAACCACCCCTGCCGCCTCGCTTCCACTTCCCGGAGTCACCTAGTGCAG”, the binding signal was 9230 fluorescence intensity (a.u.). On to “CTACATGTTACATATTACGTCCATTTGAGTTCATTTTTTCCGGAGTCACCTAGTGCAG”, for which the binding signal is 14900 fluorescence intensity (a.u.). For the sequence “CCTCCCTCTCGCTTACGAACTCCGCTACCAACCGCTTCCTCGGAGTCACCTAGTGCAG”, the binding signal was 8690 fluorescence intensity (a.u.). As for “ACACCACCTCACACTTGCTCACCTAGACCATGTTCCTACTCGGAGTCACCTAGTGCAG”, the binding signal was 10700 fluorescence intensity (a.u.). “GCCAGCCTCCTCCGCAGTCCGCACCCGCCGCCCGGCCTGACGGAGTCACCTAGTGCAG”: the binding signal was 8630 fluorescence intensity (a.u.). With “CGCGTCTCCATCCATCCATCCACCGCAATGACATTAACATCGGAGTCACCTAGTGCAG”, the binding signal was 9440 fluorescence intensity (a.u.).

In the case of “TCTCTCTCCTGTTGACCACCTGCAGATCGCCCGCGCGATGCGGAGTCACCTAGTGCAG”, the binding signal was 8160 fluorescence intensity (a.u.). Take “TCTGCATCACGGCCCTTATTCCCGTTGGGCATATCTTTTACGGAGTCACCTAGTGCAG”: the binding signal was 11500 fluorescence intensity (a.u.). In the case of “GCTCGATTCTTCGCCTCCTCCGACGCCCCATCGTCGCGCCCGGAGTCACCTAGTGCAG”, the binding signal was 8130 fluorescence intensity (a.u.). As to “CCTCAAACACACTCTAATTTATATTTCACATGTATTTTACCGGAGTCACCTAGTGCAG”, the binding signal was 9130 fluorescence intensity (a.u.).
